Results: US11592438B2, “Device and method for force phenotyping of cells for high-throughput screening and analysis” (THE REGENTS OF THE UNIVERSITY OF CALIFORNIA, priority 2014, dated 2023)
At least one compound was matched to its structure with a doubt left.

Tested on: primary human airway smooth muscle cells
Assay: Pattern contraction / force generation screening of airway smooth muscle cells in 96 well plate
Assay type: cell-based
Details: ASM cells exposed to the compound; FIG. 11A
Excerpt: The image processing software 36 identifies all instances of a given molecular pattern 16 in an image stack and determines how many cells (e.g., 0, 1, or 2+) are adhered to each pattern 16 based on images of those cells 11 with stained nuclei. A MATLAB script opens the image files and pairs the stained nuclei images (e.g., DAPI images) with the fluorescent images of the patterns 16 (e.g., FITC images). The image processing software 36 calculates characteristic pixel length(s) of a given pattern 16 for the cases of no cells adhered and one (1) cell adhered. The ‘FITC’ images may be linearly scaled up with, for example, the MATLAB function ‘imresize’ to improve resolution of these measurements. For those patterns with zero cells adhered thereto, the center of each pattern 16 may be determined using binary center-of-mass calculations. […] Patterns 16 with two or more nuclei are not analyzed. For each processed pattern 16 (those that are crosses or “X” shaped), the diagonal distance in pixels is measured between the calculated center and the bright edge of the pattern 16 in each direction as illustrated in FIG. 10. […] These lengths are normalized to the median of those measured in patterns 16 with no cells (nominally 0 pixel deformations which is used as a control) and a relative distribution plot for patterns with one (1) cell is generated (see FIG. 8). […]

SMILES: CC(=O)OCC[N+](C)(C)C [acetylcholine]
- contraction of ASM cells (pattern deflection): contraction
